# Results are given in words; binding and its absence hold for the method and conditions named. Binding seen in cells or lysates may run through a third protein. Some results given as binding are weak or reduced against the parent protein; the word gives no strength.
# T1: BCL2, mouse (mouse (endogenous in mouse skeletal muscle and brain)), P10417
# T1 chain: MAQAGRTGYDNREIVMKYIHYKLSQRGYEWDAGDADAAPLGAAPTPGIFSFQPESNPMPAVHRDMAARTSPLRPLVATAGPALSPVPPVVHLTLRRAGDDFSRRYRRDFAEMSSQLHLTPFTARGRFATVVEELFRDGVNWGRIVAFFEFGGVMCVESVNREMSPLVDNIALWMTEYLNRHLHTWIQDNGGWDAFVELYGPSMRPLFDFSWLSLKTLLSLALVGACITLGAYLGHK
# Biological target: T1, BCL2, mouse (mouse (endogenous in mouse …))
# Test: co-IP; skeletal muscle and brain of WT and Becn1^FA/FA mice homogenized in 50 mM Tris pH 7.5, 150 mM NaCl, 1 mM EDTA, 1% Triton X-100; immunoprecipitation with anti-BCL2 antibody agarose beads, blot for BECN1 and BCL2
# Conditions: remark: other sources report otherwise
binder,measurement,value
"BECN1 (Beclin 1), wild-type mouse, O88597 1-448 (protein) MEGSKASSSTMQVSFVCQRCSQPLKLDTSFKILDRVTIQELTAPLLTTAQAKPGETQEEEANSGEEPFIETRQDGVSRRFIPPARMMSTESANSFTLIGEASDGGTMENLSRRLKVTGDLFDIMSGQTDVDHPLCEECTDTLLDQLDTQLNVTENECQNYKRCLEILEQMNEDDSEQLQRELKELALEEERLIQELEDVEKNRKVVAENLEKVQAEAERLDQEEAQYQREYSEFKRQQLELDDELKSVENQVRYAQIQLDKLKKTNVFNATFHIWHSGQFGTINNFRLGRLPSVPVEWNEINAAWGQTVLLLHALANKMGLKFQRYRLVPYGNHSYLESLTDKSKELPLYCSGGLRFFWDNKFDHAMVAFLDCVQQFKEEVEKGETRFCLPYRMDVEKGKIEDTGGSGGSYSIKTQFNSEEQWTKALKFMLTNLKWGLAWVSSQFYNK",binding,binds
